Test results from the supplement of paper PMC10338343.
± gives the standard deviation. The entries are a selection whose mix differs from that of the whole data set. Many of these values have a large error.
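Note: 1 nM active piRISC with 0.1 nM target library at 33 °C single turnover.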

What follows are sequences tested on MIWI (PIWIL1) piRISC loaded with Kctd7 piRNA (30 nt) (assay: pre-steady-state target cleavage rate (min^-1); MIWI and MILI are mouse PIWI proteins and EfPiwi is from a freshwater sponge; tags in brackets are library labels; higher = faster piRNA-guided slicing of the target). Details: guide: Kctd7 piRNA 5'p-UGUUAAUCUCUCAGAGAAGGUGACAGUGAU; auxiliary factor: 500 nM mouse GTSF1.
In short: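 Three pooled Cleave-'n-Seq trials supplied the data, with k3 capped at 0.0001 min^-1. In each, […] transcribed, DNA-blocked target RNA library and 1 nM active affinity-purified piRISC with one synthetic guide reacted in HEPES–potassium acetate buffer at 33 °C for 0–8 or 0–960 min, with or without 500 nM GTSF1 partner protein. Uncleaved targets were sequenced and normalised to depth and to weakly complementary targets. A burst-and-steady-state fit provided the pre-steady-state cleavage rate.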
In the case of UAGUGACUCACCUUCUCUGAGACAUUUUGA, the “pre-steady-state target cleavage rate” value is reported as 0.000488 ± 0.011.
For UAGUGUGUCACCUUCUCUGGAGAGAUUAACA, the “pre-steady-state target cleavage rate” value was 0.00122 ± 0.013.
UUCACAGUCACCUUCUCUGAGAGAUUAACA was tested, and the “pre-steady-state target cleavage rate” value was 0.656 ± 0.027.
With AUCACUGUCACCUUCUCUGACUGAUUUUGA the “pre-steady-state target cleavage rate” value was 0.00307 ± 0.0036.
In the case of UACACUCUCACCUUCUCUGUGAGAUUAACA, the “pre-steady-state target cleavage rate” value is reported as 0.141 ± 0.014.
With UAGACUGUCACCUUCUCUGAGACAUAAACA the “pre-steady-state target cleavage rate” value was 0.00199 ± 0.0039.
With UAGUGACAGACCUUCUCUGAGAGAAUUACA the “pre-steady-state target cleavage rate” value was 0.00351 ± 0.0051.
In the case of UAGUGACACACCUUGUCUGAGAGAUAUUGA, the “pre-steady-state target cleavage rate” value is reported as 0.0008 ± 0.011.
For UAGUCUGACACCUUCUCUGAGAGAUAUUGA, the “pre-steady-state target cleavage rate” value was 0.00198 ± 0.0037.
In the case of UAGUCUGUCACCUUCUCUGACUCAUUUUGA, the “pre-steady-state target cleavage rate” value is reported as 0.00125 ± 0.0044.
With “UAGUCUGUCACCUUCUCUGUCUCUAAUUGA [g12:g26:cont:t1A]” the “pre-steady-state target cleavage rate” value was 0.00147 ± 0.0068.
With UAGUGACAGUGGAAGAGAGAGAGAUAAUCA the “pre-steady-state target cleavage rate” value was 0.000229 ± 0.023.
UAGUGACAGACCUUCUCUCAGUGAUUAACA was tested, and the “pre-steady-state target cleavage rate” value was 0.002 ± 0.0053.
“UUCACUGUCACCUUCUCUGUCUCUAAUUGA [g12:g29:cont:t1A]” was tested, and the “pre-steady-state target cleavage rate” value was 0.00372 ± 0.0039.
For UAGUGAGUCAGCUUCUCUGAGAGAUAUUGA, the “pre-steady-state target cleavage rate” value was 0.00249 ± 0.0048.
UAGUGUGUCUGCUUCUCUGAGAGAUUUUGA was tested, and the “pre-steady-state target cleavage rate” value was 0.000801 ± 0.0072.
In the case of UAGUGUGUCACCUUCUCUGUCUGAUUAAGA, the “pre-steady-state target cleavage rate” value is reported as 0.00222 ± 0.0083.
For UAGUGACAGUGGUUCUGUGUGAGAUUAACA, the “pre-steady-state target cleavage rate” value was 0.000138 ± 0.067.
For UAGUCUGAGUCCUUCUCUGAGAGAUUAUGA, the “pre-steady-state target cleavage rate” value was 0.00174 ± 0.0042.
For UAGUGACAGUCCUUCUCUGAGAGUAAAACA, the “pre-steady-state target cleavage rate” value was 0.000846 ± 0.0052.
In the case of UAGACUGUCAGCUUCUCUGAGAGAUUAUCA, the “pre-steady-state target cleavage rate” value is reported as 0.171 ± 0.024.
In the case of UAGUGACAGUGCUUGAGUGAGAGAUUAACA, the “pre-steady-state target cleavage rate” value is reported as 0.000404 ± 0.02.
With UAGACUGUCACGAUCUCUGAGAGAUUAUGA the “pre-steady-state target cleavage rate” value was 0.00277 ± 0.0029.
For UAGUGACUCACCUUCUGACAGAGAUUUUGA, the “pre-steady-state target cleavage rate” value was 0.000219 ± 0.038.
UAGUGACAGUCCUUCACUGAGAGAUUAUGA was tested, and the “pre-steady-state target cleavage rate” value was 0.000905 ± 0.0091.
For UAGUGACAGACCUUCUGUGACAGAUUAACA, the “pre-steady-state target cleavage rate” value was 0.003 ± 0.0049.
With UAGUGACAGACCAUCUCUGAGAGAAUAACA the “pre-steady-state target cleavage rate” value was 0.00244 ± 0.0047.
In the case of UUCAGUGUCAGCUUCUCUGAGAGAUUAACA, the “pre-steady-state target cleavage rate” value is reported as 0.609 ± 0.032.
UAGUGACAGUGGAAGAGUGAGUCAUUAACA was tested, and the “pre-steady-state target cleavage rate” value was 0.000579 ± 0.012.
With UUCACUGUUCACCUUCUCUGAGAGAUUAACA the “pre-steady-state target cleavage rate” value was 0.633 ± 0.036.
In the case of UAGUGACAGACGUACUCUGAGAGAUUAACA, the “pre-steady-state target cleavage rate” value is reported as 0.000693 ± 0.0079.
With UAGUGACAGACGUUCUCUGAGUGAUUAACA the “pre-steady-state target cleavage rate” value was 0.00212 ± 0.0058.
For UAGUGUGUCACCAUCUCUGACAGAUUAACA, the “pre-steady-state target cleavage rate” value was 0.222 ± 0.021.
In the case of UAGUGAGUCAGGAUCUCUGAGAGAUUAUGA, the “pre-steady-state target cleavage rate” value is reported as 0.00046 ± 0.01.
For AUCACUGUCACCUUCUCUGAGAAUUAACA, the “pre-steady-state target cleavage rate” value was 0.366 ± 0.11.
With UAGACUCACACCUUCUCUGAGAGAUUAUGA the “pre-steady-state target cleavage rate” value was 0.0733 ± 0.015.
For UAGUGACAGUGCUUCUGUGAGACAUUAACA, the “pre-steady-state target cleavage rate” value was 0.000584 ± 0.012.
AUCACCUGUCACCUUCUCUGAGAGAUUAACA was tested, and the “pre-steady-state target cleavage rate” value was 0.742 ± 0.05.
UAGUGACAGACCUUGAGUGAGAGAUUAAGA was tested, and the “pre-steady-state target cleavage rate” value was 0.000378 ± 0.031.
For UUCACUGUCACCUUGCUCUGAGAGAUUAACA, the “pre-steady-state target cleavage rate” value was 0.747 ± 0.11.
UACACUGUCACCUUCUCUGAGUGAUUUACA was tested, and the “pre-steady-state target cleavage rate” value was 0.0176 ± 0.0081.
For UAGUGAGUCACCUUCUCUCAGAGAUAUUGA, the “pre-steady-state target cleavage rate” value was 0.00272 ± 0.0046.
With UACACUGUCACCUUCUCUGACUCAUUUUGA the “pre-steady-state target cleavage rate” value was 0.00221 ± 0.0058.
For UAGUGACAGACCUACUCUGAGAGAAUAACA, the “pre-steady-state target cleavage rate” value was 0.000971 ± 0.0071.
UAGUGACUCACCUUCUCAGAGAGAUAUUGA was tested, and the “pre-steady-state target cleavage rate” value was 0.00265 ± 0.004.
In the case of UAGUGACAGUGGAUCUCUGAGACAUUAUCA, the “pre-steady-state target cleavage rate” value is reported as 0.000205 ± 0.028.
With UACACUGUCACCUUCUCUGAGACUAUUUGA the “pre-steady-state target cleavage rate” value was 0.00281 ± 0.0039.
For UAGUCUGUCACCUUCUCUGAGACAUUAUCA, the “pre-steady-state target cleavage rate” value was 0.0172 ± 0.0056.
UAGUGACAGUGGAACUCUGAGACGAUUAACA was tested, and the “pre-steady-state target cleavage rate” value was 0.00094 ± 0.015.
UAGUGACAGUCCUUCUCUGAGAGUAUAACA was tested, and the “pre-steady-state target cleavage rate” value was 0.00115 ± 0.0054.
With UAGUGACAGUGGAUUCUCUGAGAGAUUAACA the “pre-steady-state target cleavage rate” value was 0.000155 ± 0.022.
For UAGUGACAGUCCUACUCUGAGAGUUUAACA, the “pre-steady-state target cleavage rate” value was 0.00174 ± 0.0035.
With AUCACUUGUCACCUUCUCUGAGAGAUUAACA the “pre-steady-state target cleavage rate” value was 0.754 ± 0.12.
With UAGUGACAGUCCUUCUCUCAGAGAUUAUCA the “pre-steady-state target cleavage rate” value was 0.00189 ± 0.0057.
UAGUGACAGUCCAUCUGUGAGAGAUUAACA was tested, and the “pre-steady-state target cleavage rate” value was 0.000797 ± 0.0079.
UAGUGACUCACCUUCUGUCAGAGAUUAACA was tested, and the “pre-steady-state target cleavage rate” value was 0.0013 ± 0.0063.
In the case of UAGUGACAGUGGAAGAGACUGAGCAUUAACA, the “pre-steady-state target cleavage rate” value is reported as 0.00041 ± 0.013.
With UAGUGACAGUGCUUCUGUGUGAGAUUAACA the “pre-steady-state target cleavage rate” value was 0.00168 ± 0.0067.
For UAGUGUGUCACCUUCUCUGAGUGAUUAUGA, the “pre-steady-state target cleavage rate” value was 0.00172 ± 0.0057.
In the case of UAGUGAGUCACCUUCUGAGAGAGAUAUUGA, the “pre-steady-state target cleavage rate” value is reported as 0.00124 ± 0.0088.
In the case of UACACUGUCACGUUCUCUGAGAGAUUAACA, the “pre-steady-state target cleavage rate” value is reported as 0.743 ± 0.037.
In the case of UAGUGACAGACCUUGUCUCAGAGAUUAACA, the “pre-steady-state target cleavage rate” value is reported as 0.00105 ± 0.0057.
ACCACUGUCACCUUCUCUGAGAGAUUAACA was tested, and the “pre-steady-state target cleavage rate” value was 0.715 ± 0.039.
With UAGUGAGUCACCUUCUCUCUCAGAUUUUGA the “pre-steady-state target cleavage rate” value was 0.00148 ± 0.0097.
AACACUGUCUCCUUCUCUGAGAGAUUAACA was tested, and the “pre-steady-state target cleavage rate” value was 0.738 ± 0.039.
With UAGUGACAGUGGAAGAGAGAGAGAAUUACA the “pre-steady-state target cleavage rate” value was 0.000296 ± 0.023.
UAGUGACAGUCCUUCUCUGAGACAUUUACA was tested, and the “pre-steady-state target cleavage rate” value was 0.000611 ± 0.0086.
For UAGUGACACAGCUUCUCUGAGAGAUUUUGA, the “pre-steady-state target cleavage rate” value was 0.000748 ± 0.0083.
For UAGACUGAGACCUUCUCUGAGAGAUAUUGA, the “pre-steady-state target cleavage rate” value was 0.00183 ± 0.0048.
UAGUGACAGUGGAAGUCUGAAAGAUUAACA was tested, and the “pre-steady-state target cleavage rate” value was 0.000112 ± 0.037.
With UAGUCUGUCACCAUCUCUGAGAGAUUAUGA the “pre-steady-state target cleavage rate” value was 0.021 ± 0.0082.
In the case of UAGUGACUCACGAUCUCUGAGAGAUUAAGA, the “pre-steady-state target cleavage rate” value is reported as 0.00113 ± 0.0098.
UACACUGUCUGGUUCUCUGAGAGAUUUUGA was tested, and the “pre-steady-state target cleavage rate” value was 0.0006 ± 0.015.
UACACUGUCACCUUCUGACAGAGAUUUUGA was tested, and the “pre-steady-state target cleavage rate” value was 0.000559 ± 0.023.
With UAGUGACAGUCCUUCUCUGUCAGAUUAACA the “pre-steady-state target cleavage rate” value was 0.000945 ± 0.0071.
UAGUGACACACCUUGAGUGAGAGAUUAAGA was tested, and the “pre-steady-state target cleavage rate” value was 0.000345 ± 0.034.
UCCACUGUCACCUUCUCUGAGAGAUUAACA was tested, and the “pre-steady-state target cleavage rate” value was 0.68 ± 0.028.
In the case of UAGUGACACACCUUCUCUGAGAGUAUAAGA, the “pre-steady-state target cleavage rate” value is reported as 0.00284 ± 0.0047.
With UAGACUGUCACCGUCUCUGAGAGAUUAACA the “pre-steady-state target cleavage rate” value was 0.769 ± 0.037.
For UAGUGACAGUGGAAGAGACAGAUAUUAACA, the “pre-steady-state target cleavage rate” value was 0.000339 ± 0.017.
UAGUGUGUCAGGAUCUCUGAGAGAUUAUGA was tested, and the “pre-steady-state target cleavage rate” value was 0.000641 ± 0.012.
AUCACUGUCACCUUCUCUGACUCAUUAAGA was tested, and the “pre-steady-state target cleavage rate” value was 0.00187 ± 0.0046.
With UAGUGACACACCUUCUCUGAGACUUUAUGA the “pre-steady-state target cleavage rate” value was 0.000315 ± 0.017.
For UAGUGAGUCACCUUCUCUGAGAGAUUAUGA, the “pre-steady-state target cleavage rate” value was 0.088 ± 0.019.
UAGUCUGUCACCUCCUCUGAGAGAUUAACA was tested, and the “pre-steady-state target cleavage rate” value was 0.726 ± 0.038.
For UAGUGACAGUGCUUCUUCUGAGAGAUUAACA, the “pre-steady-state target cleavage rate” value was 0.000995 ± 0.0056.
With UAGACUGUCACCAACUCUGAGAGAUUAUGA the “pre-steady-state target cleavage rate” value was 0.00147 ± 0.0054.
For UAGUGACAGACCUUCUCUGAGGAGAUUAACA, the “pre-steady-state target cleavage rate” value was 0.00268 ± 0.0037.
With UAGUGAGUCAGGUUCUCUGAGAGAUUUUGA the “pre-steady-state target cleavage rate” value was 0.00174 ± 0.0064.
UAGUCUGUCUCCAUCUCUGAGAGAUUAACA was tested, and the “pre-steady-state target cleavage rate” value was 0.509 ± 0.034.
In the case of UAGUGACAGUGCUUCUCAGAGAGAUUUACA, the “pre-steady-state target cleavage rate” value is reported as 0.00114 ± 0.0059.
